The results in this text go back to PMC8295262.

Results are given in words; binding and its absence hold for the method and conditions named. Binding seen in cells or lysates may run through a third protein. A result given as binding can be weak or reduced; the word gives no strength. Sequences can lack the tags named with a protein.

In this experiment the target is T1, Flag-tagged C. elegans VHL-1 (C. elegans) (UniProt Q19213).
T1 sequence: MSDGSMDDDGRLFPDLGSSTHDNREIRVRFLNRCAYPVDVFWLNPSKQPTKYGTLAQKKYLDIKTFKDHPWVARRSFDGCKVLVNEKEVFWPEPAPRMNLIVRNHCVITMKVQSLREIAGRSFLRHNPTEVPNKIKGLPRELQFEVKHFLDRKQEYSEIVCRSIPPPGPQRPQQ
In words: co-IP; HEK293T cells co-transfected; lysis in IP buffer (20 mM Tris-HCl pH 7.5, 1% Triton X-100, 50 mM NaCl, 50 mM NaF, 15 mM Na4P2O7, 0.1 mM EDTA, 2 mM Na3VO4); Flag-tagged protein precipitated on anti-FLAG M2 affinity beads overnight at 4 °C; co-precipitate detected by blot with anti-Myc or anti-GFP.

Take DAF-15.EGFP (C. elegans): the binding result is on record as “binds”.
